These are yes or no findings as the source states them, for the method shown. Some entries that bind do so weakly or less than the wild type.
Molecular target: C-terminal domain of mouse Rab11-FIP2 (Rab11-FIP2-C) (mouse) (UniProt G3XA57)
Assay: two-hybrid

By UniProt entry, the sequences of proteins in these tests, tags left out. Residues count along the entry.
UniProt G3XA57, residues 389-512: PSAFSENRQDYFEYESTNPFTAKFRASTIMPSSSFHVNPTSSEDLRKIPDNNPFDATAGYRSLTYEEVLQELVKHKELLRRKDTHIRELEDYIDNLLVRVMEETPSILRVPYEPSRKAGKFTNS

C-terminal domain of mouse Rab11-FIP2 (Rab11-FIP2-C) (from UniProt G3XA57 389-512) (domain or fragment)
binding: binds
